# Reference: article PMC7819943, “Rice protein-binding microarrays: a tool to detect cis-acting elements near promoter regions in rice”
# This is one part of the list.
# Target: T1, OsSMF1 (Oryza sativa, UniProt Q6ZLB0 1-436)
# T1 sequence: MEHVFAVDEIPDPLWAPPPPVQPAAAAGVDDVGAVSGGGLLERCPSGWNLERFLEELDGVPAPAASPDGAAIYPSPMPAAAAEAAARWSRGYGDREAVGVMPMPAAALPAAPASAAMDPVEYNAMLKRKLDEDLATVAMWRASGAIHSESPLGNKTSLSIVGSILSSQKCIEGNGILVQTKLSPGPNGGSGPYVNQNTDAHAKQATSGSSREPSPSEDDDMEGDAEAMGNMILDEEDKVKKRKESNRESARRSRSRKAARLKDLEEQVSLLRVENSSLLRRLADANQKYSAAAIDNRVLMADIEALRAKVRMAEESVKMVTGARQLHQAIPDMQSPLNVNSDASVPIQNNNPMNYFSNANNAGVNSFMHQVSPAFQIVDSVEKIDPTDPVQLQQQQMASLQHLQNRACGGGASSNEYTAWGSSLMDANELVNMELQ
# Experiment: protein-binding microarray (RPBM); PBS, 2% BSA, 51.3 ng/ul salmon testes DNA, 50 uM zinc acetate, 200 nM TF, 25 C, 1 h; high values mean tight binding
# Conditions: protein: recombinant; tags: N-terminal polyhistidine and DsRed monomer fusion (pET32a); chain copies: 2; label: CyDye5-dUTP incorporated in the synthesized complementary strand; 3' TTTTT single-stranded linker to array surface; dsDNA, one strand shown
# How it was run: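 Binding signal here means per-feature fluorescence intensity in arbitrary units. The values were read on an Axon 4000B scanner after a custom Agilent array, double-stranded by primer extension with Cy5-dUTP, was incubated with 200 nM protein at 25 °C for 1 h in PBS with 2% BSA, salmon testes DNA and 50 µM zinc acetate, then washed. The proteins were transcription factors with an N-terminal polyhistidine tag and DsRed, expressed in E. coli BL21-CodonPlus and purified on Ni–NTA.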
row,Sequence,binding signal
1,CCTCCACCTCGCCGCCGCCGCTGCTCGCGACCGATCTTCACGGAGTCACCTAGTGCAG,3340 fluorescence intensity (a.u.)
2,GCCCGCCCACCCACGTGGGCTCCACGTGTCGCTTCTCCCGCGGAGTCACCTAGTGCAG,36200 fluorescence intensity (a.u.)
3,TGCATCGACGCCACAACAGCCGACAGATGGGAGATGTTGACGGAGTCACCTAGTGCAG,3250 fluorescence intensity (a.u.)
4,TGAATTAAATAATGTGCCATATAATCATCTTTTAGCTGCTCGGAGTCACCTAGTGCAG,3740 fluorescence intensity (a.u.)
5,CCAAACCCCACGCACGCCGCGTCGCCGCCTCCTCCTCTCCCGGAGTCACCTAGTGCAG,3670 fluorescence intensity (a.u.)
6,GATTAATTACCTACCTGCTTACGTCCTCCGTGCTTAAGCACGGAGTCACCTAGTGCAG,3370 fluorescence intensity (a.u.)
7,GTTGGGGCGCCTCTGGGGCTGTCCACGTCGGATAGCTACACGGAGTCACCTAGTGCAG,20700 fluorescence intensity (a.u.)
8,CCAAATTCAATGCCACATATACAGATCACGCAACATTTTACGGAGTCACCTAGTGCAG,4660 fluorescence intensity (a.u.)
9,CTCAACAGCAACAGCAACAACACACTTACCAAATTTGTGTCGGAGTCACCTAGTGCAG,3620 fluorescence intensity (a.u.)
10,GGCCACCTGGCCTCTCCTCAGCAACAGCTCATATTGTTTGCGGAGTCACCTAGTGCAG,3260 fluorescence intensity (a.u.)
11,ATGTAATTTGTTTTCTTATTAGATTACGTTTAATATTTTACGGAGTCACCTAGTGCAG,3160 fluorescence intensity (a.u.)
12,CCAAGTAGGGGTCATTTTCTTCAGGTATCAGCTAAAACGGCGGAGTCACCTAGTGCAG,3710 fluorescence intensity (a.u.)
13,TCTTCGTCGCGTCATGCGCGCCCGGCCACGTTTTCCTCACCGGAGTCACCTAGTGCAG,8800 fluorescence intensity (a.u.)
14,CGGTAGGCCAATAGCTGTCGTCTTGCCAGATCTTTATGTCCGGAGTCACCTAGTGCAG,3170 fluorescence intensity (a.u.)
15,TTAATGCAGAATGACGCAGGCGTCCCTCATGTCTCTGGCGCGGAGTCACCTAGTGCAG,5200 fluorescence intensity (a.u.)
16,TCCTTACCCGTCATGTAGTAATGGGTATACCCACGGGCACCGGAGTCACCTAGTGCAG,3680 fluorescence intensity (a.u.)
17,ACTGTTTGCCCCGTCAGGCCGGCCGCGTGGGCCCCGCACCCGGAGTCACCTAGTGCAG,5380 fluorescence intensity (a.u.)
18,TATTTGTTGGATCTTTCTAATTTCAACCATGACGAGAGCCCGGAGTCACCTAGTGCAG,3290 fluorescence intensity (a.u.)
19,CGCCGCCGCCGCCCTTCTCTTCCTCCTCCGATTGGGTTGGCGGAGTCACCTAGTGCAG,3390 fluorescence intensity (a.u.)
20,TCCGCCCGCTCGATCGATCGAAGTCGGCGTCGCTCGCCTCCGGAGTCACCTAGTGCAG,36400 fluorescence intensity (a.u.)
21,ATTAGATCGTCGATGGAGATGACGATGTCGTCGGCGGCGACGGAGTCACCTAGTGCAG,3160 fluorescence intensity (a.u.)
22,TAATGGTGTGTCATCTAGATCCCTAAACTCTCAAAATGCACGGAGTCACCTAGTGCAG,3560 fluorescence intensity (a.u.)
23,GCCAGCGAAGATGGAGAGCGTCGCCTTGCGGGCCCCACGGCGGAGTCACCTAGTGCAG,8140 fluorescence intensity (a.u.)

# Some of the entries so far, bar-delimited.
row | Sequence | binding signal
4 | TGAATTAAATAATGTGCCATATAATCATCTTTTAGCTGCTCGGAGTCACCTAGTGCAG | 3740 fluorescence intensity (a.u.)
10 | GGCCACCTGGCCTCTCCTCAGCAACAGCTCATATTGTTTGCGGAGTCACCTAGTGCAG | 3260 fluorescence intensity (a.u.)
